# In the supplement of paper PMC11637464:
# Where a name gives a salt, the structure may show the parent alone. Some of the results follow. Single values are uncertain, as repeats are few or missing.
# System: primary mouse Muller glia with Ascl1 overexpression
# Assay: total cells recovered per well; higher = more cells recovered
# Procedure: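 Primary P11 mouse Muller glia carrying dox-inducible Ascl1 were treated with Tocriscreen Stem Cell Library compounds at 0.1, 1 or 10 uM together with doxycycline for 5 days, then profiled by sci-Plex hashing and sci-RNA-seq2. Cells were annotated by marker genes and cell-type counts per well were size-factor adjusted. Read-outs are the log2 fold change of Neuronal (NeuPre + bipolar) and ProL cell counts versus the Ascl1-only control wells of the same collection day, plus the raw number of recovered cells per well. There is one well per dose, and wells with fewer than 20 cells were discarded.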
SMILES,total cells recovered per well (0.1 µM),total cells recovered per well (1 µM),total cells recovered per well (10 µM)
CCn1c(=O)[nH]c2ccccc21 (collection day: 1),62,62,53
Cc1nn(-c2ccccc2)c(C)c1C=NN1CCN(Cc2ccccc2)CC1 (collection day: 1),72,86,72
NCCNS(=O)(=O)c1ccc(Cl)c2ccncc12 [CKI 7 dihydrochloride] (collection day: 2),150,115,100
CN(CCOc1ccc(CC2SC(=O)NC2=O)cc1)c1ccccn1 (stereo unspecified) [Rosiglitazone] (collection day: 2),95,98,118
C[S+]([O-])c1ccc(-c2nc(-c3ccc(F)cc3)c(-c3ccncc3)[nH]2)cc1 (stereo unspecified) (collection day: 1),55,64,46
O=c1cc(N2CCOCC2)oc2c(-c3ccccc3)cccc12 (collection day: 1),66,72,61
O=C1Cc2c([nH]c3ccc(Br)cc23)-c2ccccc2N1 [Kenpaullone] (collection day: 1),45,57,
CNCCC(Oc1ccc(C(F)(F)F)cc1)c1ccccc1 (stereo unspecified) [Fluoxetine hydrochloride] (collection day: 1),52,90,
CC(ONC(=O)c1cc(C(F)(F)F)cc(C(F)(F)F)c1)C(=O)Nc1ccc(Cl)cc1 (stereo unspecified) (collection day: 2),69,115,
CCc1ccc(CCOc2ccc(CC3SC(=O)NC3=O)cc2)nc1 (stereo unspecified) [Pioglitazone hydrochloride] (collection day: 2),68,103,87
Cc1ccc(/C=N/NC(=O)c2ccccc2Oc2ccccc2)o1 (collection day: 2),101,85,74
COc1cc2c(cc1-c1c(C)noc1C)ncc1[nH]c(=O)n([C@H](C)c3ccccn3)c12 [I-BET 151 dihydrochloride] (collection day: 2),124,65,48
c1cc(-c2cnn3cc(-c4ccc(OCCN5CCCCC5)cc4)cnc23)ccn1 [Dorsomorphin dihydrochloride] (collection day: 1),76,81,
"CCCC(CCC)C(=O)O [Valproic acid, sodium salt] (collection day: 1)",124,104,89
CN(C)CCOc1cc(-c2cn[nH]c2)ccc1NC(=O)C1COc2ccccc2O1 (stereo unspecified) [SR 3677 dihydrochloride] (collection day: 2),62,,62
O=C(Nc1cccc2cccnc12)c1ccc(N2C(=O)[C@@H]3[C@H](C2=O)[C@@H]2C=C[C@H]3C2)cc1 [endo-IWR 1] (collection day: 2),,,96

# A different layout for part of the listing above.
SMILES	total cells recovered per well (0.1 µM)	total cells recovered per well (1 µM)	total cells recovered per well (10 µM)
CC(ONC(=O)c1cc(C(F)(F)F)cc(C(F)(F)F)c1)C(=O)Nc1ccc(Cl)cc1 (stereo unspecified) (collection day: 2)	69	115	
CCc1ccc(CCOc2ccc(CC3SC(=O)NC3=O)cc2)nc1 (stereo unspecified) [Pioglitazone hydrochloride] (collection day: 2)	68	103	87
Cc1ccc(/C=N/NC(=O)c2ccccc2Oc2ccccc2)o1 (collection day: 2)	101	85	74
COc1cc2c(cc1-c1c(C)noc1C)ncc1[nH]c(=O)n([C@H](C)c3ccccn3)c12 [I-BET 151 dihydrochloride] (collection day: 2)	124	65	48
